Results taken from patent US20160017037A1.
Results are given in words; binding and its absence hold for the method and conditions named. Some entries that bind do so weakly or less than the wild type.

Amino acid sequences for entries named in this document (tags omitted). Residues count along the entry.
UniProt P18627, residues 23-434: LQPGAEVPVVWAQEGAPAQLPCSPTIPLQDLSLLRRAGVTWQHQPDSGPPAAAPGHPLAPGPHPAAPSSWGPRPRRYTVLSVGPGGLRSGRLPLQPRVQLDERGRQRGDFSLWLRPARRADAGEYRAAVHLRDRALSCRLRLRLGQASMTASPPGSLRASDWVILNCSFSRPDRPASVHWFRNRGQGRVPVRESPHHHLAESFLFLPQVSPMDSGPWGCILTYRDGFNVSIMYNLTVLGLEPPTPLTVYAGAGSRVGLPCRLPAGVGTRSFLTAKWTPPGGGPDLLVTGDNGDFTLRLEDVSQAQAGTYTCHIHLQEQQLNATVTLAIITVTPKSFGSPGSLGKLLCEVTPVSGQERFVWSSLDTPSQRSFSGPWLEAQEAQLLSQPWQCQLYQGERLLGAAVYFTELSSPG

Experiments:
[1] = molecular target: Fc-tagged recombinant soluble LAG-3 (IMP321) (human) (UniProt P18627); assay: SPR Biacore 3000, off-rate comparison with IMP731, IMP321 analyte at 64 nM
[2] = molecular target: Fc-tagged recombinant soluble LAG-3 (IMP321) (human) (UniProt P18627); assay: SPR Biacore 3000, tissue culture supernatants, off-rates compared with IMP731 visually
[3] = molecular target: Fc-tagged recombinant soluble LAG-3 (IMP321) (human) (UniProt P18627); assay: SPR Biacore 3000, purified antibody captured on anti-human kappa, IMP321 analyte at 64 nM, visual inspection of sensorgrams

Measured: binding

B1: J0L7 (antibody, human IgG1, kappa, V domains shown)
VH: QVQLVQSGAEVKKPGSSVKVSCKASGGTFSAYGVNWVRQAPGQGLEWMGMIWDDGSTDYNSALKSRVTITADKSTSTAYMELSSLRSEDTAVYYCAREGDVAFDYWGQGTLVTVSS
VL: DIQMTQSPSSLSASVGDRVTITCKSSQSLLNPSNQKNYLAWYQQKPGKAPKLLVYFASTRDSGVPSRFSGSGSGTDFTLTISSLQPEDFATYYCLQHFGTPPTFGQGTKLEIKR
binds: [1] | [2] | [3]

B2: H2L7 (antibody, human IgG1, kappa, V domains shown)
VH: QVQLQESGPGLVKPSETLSLTCTVSGFSLTAYGVNWIRQPPGKGLEWIGMIWDDGSTDYNSALKSRVTISKDNSKNQVSLKLSSVTAADTAVYYCAREGDVAFDYWGQGTLVTVSS
VL: DIQMTQSPSSLSASVGDRVTITCKSSQSLLNPSNQKNYLAWYQQKPGKAPKLLVYFASTRDSGVPSRFSGSGSGTDFTLTISSLQPEDFATYYCLQHFGTPPTFGQGTKLEIKR
binds: [1] | [2] | [3]

B3: J11L1 (antibody, human IgG1, kappa, V domains shown)
VH: QVQLVQSGAEVKKPGSSVKVSCKASGFSLTAYGVNWVRQAPGQGLEWMGMIWDDGSTDYDSALKSRVTITADKSTSTAYMELSSLRSEDTAVYYCAREGDVAFDYWGQGTLVTVSS
VL: DIQMTQSPSSLSASVGDRVTITCKSSQSLLNGSNQKNYLAWYQQKPGKAPKLLVYFASTRDSGVPSRFSGSGSGTDFTLTISSLQPEDFATYYCLQHFGTPPTFGQGTKLEIKR
binds: [1] | [2] | [3]

B4: H7L7 (antibody, human IgG1, kappa, V domains shown)
VH: QVQLQESGPGLVKPSETLSLTCTVSGGSISAYGVNWIRQPPGKGLEWIGMIWDDGSTDYDSALKSRVTISVDTSKNQFSLKLSSVTAADTAVYYCAREGDVAFDYWGQGTLVTVSS
VL: DIQMTQSPSSLSASVGDRVTITCKSSQSLLNPSNQKNYLAWYQQKPGKAPKLLVYFASTRDSGVPSRFSGSGSGTDFTLTISSLQPEDFATYYCLQHFGTPPTFGQGTKLEIKR
binds: [1] | [2] | [3]

B5: H7L1 (antibody, human IgG1, kappa, V domains shown)
VH: QVQLQESGPGLVKPSETLSLTCTVSGGSISAYGVNWIRQPPGKGLEWIGMIWDDGSTDYDSALKSRVTISVDTSKNQFSLKLSSVTAADTAVYYCAREGDVAFDYWGQGTLVTVSS
VL: DIQMTQSPSSLSASVGDRVTITCKSSQSLLNGSNQKNYLAWYQQKPGKAPKLLVYFASTRDSGVPSRFSGSGSGTDFTLTISSLQPEDFATYYCLQHFGTPPTFGQGTKLEIKR
binds: [1] | [2] | [3]

B6: H4L7 (antibody, human IgG1, kappa, V domains shown)
VH: QVQLQESGPGLVKPSETLSLTCTVSGFSLTAYGVNWIRQPPGKGLEWLGMIWDDGSTDYNSALKSRLTISKDNSKNQVSLKLSSVTAADTAVYYCAREGDVAFDYWGQGTLVTVSS
VL: DIQMTQSPSSLSASVGDRVTITCKSSQSLLNPSNQKNYLAWYQQKPGKAPKLLVYFASTRDSGVPSRFSGSGSGTDFTLTISSLQPEDFATYYCLQHFGTPPTFGQGTKLEIKR
binds: [1] | [2] | [3]

B7: H0L7 (antibody, human IgG1, kappa, V domains shown)
VH: QVQLQESGPGLVKPSETLSLTCTVSGGSISAYGVNWIRQPPGKGLEWIGMIWDDGSTDYNSALKSRVTISVDTSKNQFSLKLSSVTAADTAVYYCAREGDVAFDYWGQGTLVTVSS
VL: DIQMTQSPSSLSASVGDRVTITCKSSQSLLNPSNQKNYLAWYQQKPGKAPKLLVYFASTRDSGVPSRFSGSGSGTDFTLTISSLQPEDFATYYCLQHFGTPPTFGQGTKLEIKR
binds: [1] | [2] | [3]

B8: H0L1 (antibody, human IgG1, kappa, V domains shown)
VH: QVQLQESGPGLVKPSETLSLTCTVSGGSISAYGVNWIRQPPGKGLEWIGMIWDDGSTDYNSALKSRVTISVDTSKNQFSLKLSSVTAADTAVYYCAREGDVAFDYWGQGTLVTVSS
VL: DIQMTQSPSSLSASVGDRVTITCKSSQSLLNGSNQKNYLAWYQQKPGKAPKLLVYFASTRDSGVPSRFSGSGSGTDFTLTISSLQPEDFATYYCLQHFGTPPTFGQGTKLEIKR
binds: [1] | [2] | [3]

B9: H5L1 (antibody, human IgG1, kappa, V domains shown)
VH: QVQLQESGPGLVKPSETLSLTCTVSGFSLTAYGVNWIRQPPGKGLEWIGMIWDDGSTDYDSALKSRVTISVDTSKNQFSLKLSSVTAADTAVYYCAREGDVAFDYWGQGTLVTVSS
VL: DIQMTQSPSSLSASVGDRVTITCKSSQSLLNGSNQKNYLAWYQQKPGKAPKLLVYFASTRDSGVPSRFSGSGSGTDFTLTISSLQPEDFATYYCLQHFGTPPTFGQGTKLEIKR
binds: [1] | [2] | [3]

B10: J7L1 (antibody, human IgG1, kappa, V domains shown)
VH: QVQLVQSGAEVKKPGSSVKVSCKASGFSLTAYGVNWVRQAPGQGLEWMGMIWDDGSTDYNSALKSRVTITADKSTSTAYMELSSLRSEDTAVYYCAREGDVAFDYWGQGTLVTVSS
VL: DIQMTQSPSSLSASVGDRVTITCKSSQSLLNGSNQKNYLAWYQQKPGKAPKLLVYFASTRDSGVPSRFSGSGSGTDFTLTISSLQPEDFATYYCLQHFGTPPTFGQGTKLEIKR
binds: [1] | [2] | [3]

B11: H1L7 (antibody, human IgG1, kappa, V domains shown)
VH: QVQLQESGPGLVKPSETLSLTCTVSGFSLTAYGVNWIRQPPGKGLEWIGMIWDDGSTDYNSALKSRVTISVDTSKNQFSLKLSSVTAADTAVYYCAREGDVAFDYWGQGTLVTVSS
VL: DIQMTQSPSSLSASVGDRVTITCKSSQSLLNPSNQKNYLAWYQQKPGKAPKLLVYFASTRDSGVPSRFSGSGSGTDFTLTISSLQPEDFATYYCLQHFGTPPTFGQGTKLEIKR
binds: [1] | [2] | [3]

B12: J11L7 (antibody, human IgG1, kappa, V domains shown)
VH: QVQLVQSGAEVKKPGSSVKVSCKASGFSLTAYGVNWVRQAPGQGLEWMGMIWDDGSTDYDSALKSRVTITADKSTSTAYMELSSLRSEDTAVYYCAREGDVAFDYWGQGTLVTVSS
VL: DIQMTQSPSSLSASVGDRVTITCKSSQSLLNPSNQKNYLAWYQQKPGKAPKLLVYFASTRDSGVPSRFSGSGSGTDFTLTISSLQPEDFATYYCLQHFGTPPTFGQGTKLEIKR
binds: [1] | [2] | [3]

B13: J13L1 (antibody, human IgG1, kappa, V domains shown)
VH: QVQLVQSGAEVKKPGSSVKVSCKASGGTFSAYGVNWVRQAPGQGLEWMGMIWDDGSTDYDSALKSRVTITADKSTSTAYMELSSLRSEDTAVYYCAREGDVAFDYWGQGTLVTVSS
VL: DIQMTQSPSSLSASVGDRVTITCKSSQSLLNGSNQKNYLAWYQQKPGKAPKLLVYFASTRDSGVPSRFSGSGSGTDFTLTISSLQPEDFATYYCLQHFGTPPTFGQGTKLEIKR
binds: [1] | [2] | [3]

B14: H1L1 (antibody, human IgG1, kappa, V domains shown)
VH: QVQLQESGPGLVKPSETLSLTCTVSGFSLTAYGVNWIRQPPGKGLEWIGMIWDDGSTDYNSALKSRVTISVDTSKNQFSLKLSSVTAADTAVYYCAREGDVAFDYWGQGTLVTVSS
VL: DIQMTQSPSSLSASVGDRVTITCKSSQSLLNGSNQKNYLAWYQQKPGKAPKLLVYFASTRDSGVPSRFSGSGSGTDFTLTISSLQPEDFATYYCLQHFGTPPTFGQGTKLEIKR
binds: [1] | [2] | [3]

B15: J13L7 (antibody, human IgG1, kappa, V domains shown)
VH: QVQLVQSGAEVKKPGSSVKVSCKASGGTFSAYGVNWVRQAPGQGLEWMGMIWDDGSTDYDSALKSRVTITADKSTSTAYMELSSLRSEDTAVYYCAREGDVAFDYWGQGTLVTVSS
VL: DIQMTQSPSSLSASVGDRVTITCKSSQSLLNPSNQKNYLAWYQQKPGKAPKLLVYFASTRDSGVPSRFSGSGSGTDFTLTISSLQPEDFATYYCLQHFGTPPTFGQGTKLEIKR
binds: [1] | [2] | [3]

B16: J7L7 (antibody, human IgG1, kappa, V domains shown)
VH: QVQLVQSGAEVKKPGSSVKVSCKASGFSLTAYGVNWVRQAPGQGLEWMGMIWDDGSTDYNSALKSRVTITADKSTSTAYMELSSLRSEDTAVYYCAREGDVAFDYWGQGTLVTVSS
VL: DIQMTQSPSSLSASVGDRVTITCKSSQSLLNPSNQKNYLAWYQQKPGKAPKLLVYFASTRDSGVPSRFSGSGSGTDFTLTISSLQPEDFATYYCLQHFGTPPTFGQGTKLEIKR
binds: [1] | [2] | [3]

B17: J0L1 (antibody, human IgG1, kappa, V domains shown)
VH: QVQLVQSGAEVKKPGSSVKVSCKASGGTFSAYGVNWVRQAPGQGLEWMGMIWDDGSTDYNSALKSRVTITADKSTSTAYMELSSLRSEDTAVYYCAREGDVAFDYWGQGTLVTVSS
VL: DIQMTQSPSSLSASVGDRVTITCKSSQSLLNGSNQKNYLAWYQQKPGKAPKLLVYFASTRDSGVPSRFSGSGSGTDFTLTISSLQPEDFATYYCLQHFGTPPTFGQGTKLEIKR
binds: [1] | [2] | [3]
